For at least one entry, the source does not settle the construct or the ends of the probe.
System: Hsh49 + Cus1
Experiment: UV crosslinking MS
Conditions: 254 nm, 10 min, protein:RNA 4:1; letters put together from the description

Sequence: GGACGAAUCUCUUUGCCUUUUGGCUUAGAUCAAGUGUAGUAUCUGUUCUUCUAG [U2 47Nt-snRNA]
- binding result: binds
